# Results as given in the supplement of paper PMC12595434, “Development of retinoid nuclear receptor pathway antagonists through targeting aldehyde dehydrogenase 1A3” (iScience, 2025).
# Chains of the proteins cited; added tags and fusions are not shown. Lines headed by an entry give the natural chain unless they say otherwise; changes in a name come on top.
# UniProt P13667: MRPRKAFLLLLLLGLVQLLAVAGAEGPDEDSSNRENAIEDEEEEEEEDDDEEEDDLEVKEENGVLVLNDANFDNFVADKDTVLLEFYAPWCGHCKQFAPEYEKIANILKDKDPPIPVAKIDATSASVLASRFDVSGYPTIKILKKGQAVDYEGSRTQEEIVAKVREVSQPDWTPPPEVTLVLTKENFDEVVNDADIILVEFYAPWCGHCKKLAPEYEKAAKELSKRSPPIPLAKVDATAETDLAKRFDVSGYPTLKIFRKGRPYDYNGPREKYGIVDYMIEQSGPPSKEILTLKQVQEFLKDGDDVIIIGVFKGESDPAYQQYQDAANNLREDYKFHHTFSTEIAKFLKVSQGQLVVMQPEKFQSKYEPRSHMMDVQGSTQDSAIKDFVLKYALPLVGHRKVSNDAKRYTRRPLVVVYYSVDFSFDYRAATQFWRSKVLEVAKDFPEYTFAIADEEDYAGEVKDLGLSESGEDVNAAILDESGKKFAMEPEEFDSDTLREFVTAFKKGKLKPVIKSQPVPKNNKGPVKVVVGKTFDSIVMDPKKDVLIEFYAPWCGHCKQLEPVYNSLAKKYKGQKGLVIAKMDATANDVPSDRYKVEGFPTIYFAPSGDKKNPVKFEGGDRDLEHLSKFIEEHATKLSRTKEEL
# UniProt P13995: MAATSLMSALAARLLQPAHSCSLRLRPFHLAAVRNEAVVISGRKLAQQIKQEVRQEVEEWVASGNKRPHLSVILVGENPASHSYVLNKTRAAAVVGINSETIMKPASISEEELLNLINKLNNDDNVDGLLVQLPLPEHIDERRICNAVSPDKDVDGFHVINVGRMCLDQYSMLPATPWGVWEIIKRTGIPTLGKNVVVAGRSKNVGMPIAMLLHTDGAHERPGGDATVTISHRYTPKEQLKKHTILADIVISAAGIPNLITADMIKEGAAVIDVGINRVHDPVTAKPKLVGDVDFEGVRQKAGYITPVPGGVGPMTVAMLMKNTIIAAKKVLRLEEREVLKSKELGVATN
# UniProt P14735, whole entry: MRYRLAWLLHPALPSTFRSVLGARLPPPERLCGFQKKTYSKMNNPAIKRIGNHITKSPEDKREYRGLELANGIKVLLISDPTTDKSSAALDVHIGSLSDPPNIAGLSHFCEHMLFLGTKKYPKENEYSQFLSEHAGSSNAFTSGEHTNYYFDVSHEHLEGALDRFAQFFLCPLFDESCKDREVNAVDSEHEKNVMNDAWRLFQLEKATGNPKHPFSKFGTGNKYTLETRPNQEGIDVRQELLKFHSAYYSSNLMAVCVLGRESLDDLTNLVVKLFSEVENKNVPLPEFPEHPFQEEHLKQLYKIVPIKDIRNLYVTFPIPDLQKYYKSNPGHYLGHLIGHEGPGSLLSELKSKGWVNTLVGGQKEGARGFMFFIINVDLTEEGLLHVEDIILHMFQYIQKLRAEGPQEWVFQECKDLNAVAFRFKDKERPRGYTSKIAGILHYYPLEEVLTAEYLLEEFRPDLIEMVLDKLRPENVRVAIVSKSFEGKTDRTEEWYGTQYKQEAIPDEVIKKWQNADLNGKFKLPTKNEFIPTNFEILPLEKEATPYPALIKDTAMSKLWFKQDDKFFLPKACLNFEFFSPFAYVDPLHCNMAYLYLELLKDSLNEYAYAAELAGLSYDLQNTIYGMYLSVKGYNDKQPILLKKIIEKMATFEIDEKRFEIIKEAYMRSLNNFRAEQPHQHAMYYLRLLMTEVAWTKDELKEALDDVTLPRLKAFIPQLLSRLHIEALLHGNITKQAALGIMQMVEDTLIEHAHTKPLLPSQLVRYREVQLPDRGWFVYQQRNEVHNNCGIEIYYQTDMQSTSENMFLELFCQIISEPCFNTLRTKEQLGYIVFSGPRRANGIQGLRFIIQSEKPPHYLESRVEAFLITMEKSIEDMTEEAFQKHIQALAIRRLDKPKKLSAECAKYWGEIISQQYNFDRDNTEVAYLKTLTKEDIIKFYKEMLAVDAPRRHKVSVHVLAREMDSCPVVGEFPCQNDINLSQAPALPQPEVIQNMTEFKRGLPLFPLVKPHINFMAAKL
# UniProt P09211: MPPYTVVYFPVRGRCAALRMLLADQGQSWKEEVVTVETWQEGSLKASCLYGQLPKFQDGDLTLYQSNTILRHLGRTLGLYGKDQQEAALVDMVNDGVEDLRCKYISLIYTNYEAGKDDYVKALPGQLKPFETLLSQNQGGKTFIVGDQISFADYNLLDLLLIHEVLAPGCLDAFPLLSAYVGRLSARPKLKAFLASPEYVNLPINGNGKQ
# UniProt P18859: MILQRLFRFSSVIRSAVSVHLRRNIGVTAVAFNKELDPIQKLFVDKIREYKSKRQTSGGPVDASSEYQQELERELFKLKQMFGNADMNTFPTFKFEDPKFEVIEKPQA
# UniProt P20042, whole entry: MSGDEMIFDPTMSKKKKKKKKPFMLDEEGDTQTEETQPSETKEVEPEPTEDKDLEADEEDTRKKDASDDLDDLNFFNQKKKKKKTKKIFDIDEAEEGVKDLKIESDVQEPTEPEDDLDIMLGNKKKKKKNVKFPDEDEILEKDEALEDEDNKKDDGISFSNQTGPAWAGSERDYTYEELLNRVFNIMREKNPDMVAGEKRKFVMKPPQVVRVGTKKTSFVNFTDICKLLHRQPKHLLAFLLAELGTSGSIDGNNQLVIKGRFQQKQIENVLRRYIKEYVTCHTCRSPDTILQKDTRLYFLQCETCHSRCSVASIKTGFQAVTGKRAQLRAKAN
# UniProt P13747, whole entry: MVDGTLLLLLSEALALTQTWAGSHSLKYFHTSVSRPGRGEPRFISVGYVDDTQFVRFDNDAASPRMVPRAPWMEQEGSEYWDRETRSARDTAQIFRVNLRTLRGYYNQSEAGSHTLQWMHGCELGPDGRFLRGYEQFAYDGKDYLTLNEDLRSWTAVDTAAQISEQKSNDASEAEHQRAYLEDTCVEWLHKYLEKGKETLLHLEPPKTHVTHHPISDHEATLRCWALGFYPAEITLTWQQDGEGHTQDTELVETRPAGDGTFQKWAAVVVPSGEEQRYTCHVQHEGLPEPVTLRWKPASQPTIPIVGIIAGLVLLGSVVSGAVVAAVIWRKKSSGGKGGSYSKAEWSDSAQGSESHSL
# UniProt P17568, whole entry: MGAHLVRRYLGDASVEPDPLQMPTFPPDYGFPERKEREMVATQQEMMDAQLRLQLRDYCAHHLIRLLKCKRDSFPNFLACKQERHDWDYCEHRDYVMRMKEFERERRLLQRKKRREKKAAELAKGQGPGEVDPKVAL
# UniProt P15056, whole entry: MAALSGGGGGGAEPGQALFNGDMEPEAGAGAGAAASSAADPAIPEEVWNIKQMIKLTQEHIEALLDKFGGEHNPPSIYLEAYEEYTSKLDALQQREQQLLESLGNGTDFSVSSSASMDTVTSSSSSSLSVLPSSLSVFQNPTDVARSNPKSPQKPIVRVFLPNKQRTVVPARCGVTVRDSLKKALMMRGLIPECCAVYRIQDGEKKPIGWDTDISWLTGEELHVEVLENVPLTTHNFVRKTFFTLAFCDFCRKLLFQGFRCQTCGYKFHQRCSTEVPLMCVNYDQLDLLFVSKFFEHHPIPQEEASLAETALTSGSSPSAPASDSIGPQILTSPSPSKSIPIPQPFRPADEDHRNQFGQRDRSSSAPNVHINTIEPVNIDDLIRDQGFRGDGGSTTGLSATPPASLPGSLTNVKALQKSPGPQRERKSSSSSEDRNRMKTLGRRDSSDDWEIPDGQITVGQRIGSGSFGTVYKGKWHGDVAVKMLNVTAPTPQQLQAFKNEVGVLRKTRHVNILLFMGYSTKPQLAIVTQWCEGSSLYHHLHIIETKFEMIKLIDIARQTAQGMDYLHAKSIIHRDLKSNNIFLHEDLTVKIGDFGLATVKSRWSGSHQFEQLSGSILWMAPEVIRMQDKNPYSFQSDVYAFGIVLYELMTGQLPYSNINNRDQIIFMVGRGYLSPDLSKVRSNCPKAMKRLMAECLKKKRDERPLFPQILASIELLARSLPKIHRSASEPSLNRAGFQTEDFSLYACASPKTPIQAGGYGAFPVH
# UniProt P07686: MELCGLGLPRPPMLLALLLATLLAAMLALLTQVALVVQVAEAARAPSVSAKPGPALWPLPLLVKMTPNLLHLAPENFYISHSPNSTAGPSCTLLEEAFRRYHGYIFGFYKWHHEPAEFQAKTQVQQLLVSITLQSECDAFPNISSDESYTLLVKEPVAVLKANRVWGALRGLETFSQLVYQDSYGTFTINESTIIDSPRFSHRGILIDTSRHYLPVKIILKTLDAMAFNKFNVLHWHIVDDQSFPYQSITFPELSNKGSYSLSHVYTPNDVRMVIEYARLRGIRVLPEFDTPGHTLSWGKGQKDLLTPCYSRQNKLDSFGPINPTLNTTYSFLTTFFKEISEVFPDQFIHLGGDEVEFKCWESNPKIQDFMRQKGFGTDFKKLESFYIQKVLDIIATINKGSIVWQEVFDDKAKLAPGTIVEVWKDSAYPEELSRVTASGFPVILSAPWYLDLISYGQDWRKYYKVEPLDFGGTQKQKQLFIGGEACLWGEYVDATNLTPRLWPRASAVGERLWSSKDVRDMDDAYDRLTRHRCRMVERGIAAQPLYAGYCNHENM
# UniProt P09012, whole entry: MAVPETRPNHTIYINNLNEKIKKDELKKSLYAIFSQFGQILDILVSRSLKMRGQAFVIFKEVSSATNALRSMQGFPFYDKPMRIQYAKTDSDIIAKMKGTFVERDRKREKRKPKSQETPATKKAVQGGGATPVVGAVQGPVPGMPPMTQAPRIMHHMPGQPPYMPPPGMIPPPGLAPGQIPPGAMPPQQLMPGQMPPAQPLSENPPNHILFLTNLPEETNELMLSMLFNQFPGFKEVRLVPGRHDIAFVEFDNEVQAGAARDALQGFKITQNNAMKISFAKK
# UniProt P11216: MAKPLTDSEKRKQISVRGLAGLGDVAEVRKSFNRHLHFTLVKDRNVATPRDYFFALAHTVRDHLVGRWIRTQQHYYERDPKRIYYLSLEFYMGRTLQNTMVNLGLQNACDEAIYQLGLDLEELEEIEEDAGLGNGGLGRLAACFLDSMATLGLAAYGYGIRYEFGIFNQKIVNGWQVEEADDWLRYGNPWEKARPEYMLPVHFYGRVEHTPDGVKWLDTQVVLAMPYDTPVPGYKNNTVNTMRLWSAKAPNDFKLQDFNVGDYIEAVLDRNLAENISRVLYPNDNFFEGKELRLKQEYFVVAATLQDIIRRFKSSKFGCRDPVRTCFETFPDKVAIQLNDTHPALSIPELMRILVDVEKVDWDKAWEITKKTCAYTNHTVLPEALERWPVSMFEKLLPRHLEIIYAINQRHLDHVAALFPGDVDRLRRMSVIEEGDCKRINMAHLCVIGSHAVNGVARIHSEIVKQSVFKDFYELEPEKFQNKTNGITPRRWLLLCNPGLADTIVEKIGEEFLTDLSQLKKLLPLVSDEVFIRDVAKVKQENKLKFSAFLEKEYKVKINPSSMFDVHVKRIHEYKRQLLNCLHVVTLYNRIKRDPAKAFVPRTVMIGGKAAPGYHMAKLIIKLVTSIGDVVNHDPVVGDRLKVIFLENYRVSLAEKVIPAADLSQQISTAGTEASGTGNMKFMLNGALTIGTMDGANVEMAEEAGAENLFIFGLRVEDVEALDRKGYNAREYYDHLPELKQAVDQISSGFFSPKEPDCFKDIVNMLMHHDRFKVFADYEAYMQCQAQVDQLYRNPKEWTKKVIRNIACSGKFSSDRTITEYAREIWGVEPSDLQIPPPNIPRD
# UniProt P10398: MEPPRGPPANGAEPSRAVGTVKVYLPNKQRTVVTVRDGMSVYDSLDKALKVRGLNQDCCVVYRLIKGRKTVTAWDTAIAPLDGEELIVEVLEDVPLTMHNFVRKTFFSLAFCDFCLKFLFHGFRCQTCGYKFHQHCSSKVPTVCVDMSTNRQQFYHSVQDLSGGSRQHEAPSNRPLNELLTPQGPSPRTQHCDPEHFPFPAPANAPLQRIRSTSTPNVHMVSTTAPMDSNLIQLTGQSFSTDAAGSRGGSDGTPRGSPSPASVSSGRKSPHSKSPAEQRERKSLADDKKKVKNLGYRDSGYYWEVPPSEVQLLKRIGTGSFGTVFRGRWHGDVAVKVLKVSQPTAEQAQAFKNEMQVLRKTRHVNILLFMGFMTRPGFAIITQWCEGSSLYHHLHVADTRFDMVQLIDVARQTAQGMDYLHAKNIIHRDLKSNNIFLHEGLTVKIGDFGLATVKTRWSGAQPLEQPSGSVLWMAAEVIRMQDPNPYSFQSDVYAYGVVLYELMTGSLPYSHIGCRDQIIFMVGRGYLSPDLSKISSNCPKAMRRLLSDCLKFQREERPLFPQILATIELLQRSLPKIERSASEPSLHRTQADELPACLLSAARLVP
# UniProt P11766: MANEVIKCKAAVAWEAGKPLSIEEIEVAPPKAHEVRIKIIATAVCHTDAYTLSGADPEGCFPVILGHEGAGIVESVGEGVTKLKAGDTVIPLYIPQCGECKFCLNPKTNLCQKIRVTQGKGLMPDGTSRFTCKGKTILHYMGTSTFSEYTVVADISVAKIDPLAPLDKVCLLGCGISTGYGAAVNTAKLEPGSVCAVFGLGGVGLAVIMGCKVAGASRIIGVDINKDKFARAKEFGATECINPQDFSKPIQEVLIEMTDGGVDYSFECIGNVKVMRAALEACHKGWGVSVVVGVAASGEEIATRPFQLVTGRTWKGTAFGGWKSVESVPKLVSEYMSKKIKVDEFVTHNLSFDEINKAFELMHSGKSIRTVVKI
# The other results are listed elsewhere or left out. This is a noisy data set.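 Tm was set to 64 °C where no melting was found, and many curves are irregular.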
# Compound: CCc1cnccc1C(=O)Nc1cc2c(cc1F)NC(=O)CC2
# Assay: melting temperature shift (DMSO Tm minus MBE1-treated Tm) in cellular thermal proteome profiling; higher = less thermal stabilization by MBE1 (negative = stabilized by MBE1)
# Conditions: A375; MBE1 concentration: 100 nM
row,Target,melting temperature shift [°C]
1,DSP (UniProt P15924),1.5
2,UniProt P0DPB6,-0.76
3,PDIA4 (UniProt P13667),-1.01
4,MET (UniProt P08581),0.788
5,MTHFD2 (UniProt P13995),-0.436
6,DARS (UniProt P14868),-0.4
7,IDE (UniProt P14735),0.708
8,SLC9A1 (UniProt P19634),-0.972
9,UniProt P09211,-0.738
10,ATP5J (UniProt P18859),4.61
11,EIF2S2 (UniProt P20042),-0.819
12,UMPS (UniProt P11172),-0.389
13,IFNGR1 (UniProt P15260),-0.253
14,ARF4 (UniProt P18085),-0.577
15,RPL35A (UniProt P18077),-0.0672
16,QDPR (UniProt P09417),-0.879
17,UniProt P13747,-0.436
18,NDUFB7 (UniProt P17568),-1.09
19,SRP19 (UniProt P09132),0.0427

row,Target,melting temperature shift [°C]
1,UniProt P18583,-0.846
2,SRC (UniProt P12931),-1.03
3,RAB4A (UniProt P20338),-0.261
4,ALDOC (UniProt P09972),-1.27
5,UniProt P09668,-1.95
6,BRAF (UniProt P15056),-0.395
7,HEXB (UniProt P07686),-4.1
8,SNRPA (UniProt P09012),-0.287
9,UniProt P14543,-0.449
10,SNRPA1 (UniProt P09661),-0.852
11,PYGB (UniProt P11216),-0.221
12,ARAF (UniProt P10398),2.67
13,BTF3 (UniProt P20290),-1.75
14,UniProt P19784,-0.665
15,ATP2A2 (UniProt P16615),-0.32
16,UniProt P0C1Z6,0.179
17,ADH5 (UniProt P11766),-0.374
18,ESRRA (UniProt P11474),-0.583

# Same assay, conditions: A375; MBE1 concentration: 1 uM
row,Target,melting temperature shift [°C]
1,DSP (UniProt P15924),3.09
2,UniProt P0DPB6,2.67
3,PDIA4 (UniProt P13667),-0.0872
4,MET (UniProt P08581),-0.574
5,MTHFD2 (UniProt P13995),0.999
6,DARS (UniProt P14868),-0.24
7,IDE (UniProt P14735),-0.33
8,SLC9A1 (UniProt P19634),0.0794
9,UniProt P09211,0.288
10,ATP5J (UniProt P18859),1.22
11,EIF2S2 (UniProt P20042),-0.00671
12,UMPS (UniProt P11172),0.107
13,IFNGR1 (UniProt P15260),-0.253
14,ARF4 (UniProt P18085),-0.0939
15,RPL35A (UniProt P18077),-0.0977
16,QDPR (UniProt P09417),-0.666
17,UniProt P13747,0.933
18,NDUFB7 (UniProt P17568),-0.335
19,SRP19 (UniProt P09132),0.0916

row,Target,melting temperature shift [°C]
1,UniProt P18583,-0.519
2,SRC (UniProt P12931),0.122
3,RAB4A (UniProt P20338),0.165
4,ALDOC (UniProt P09972),-1.18
5,UniProt P09668,-1.87
6,BRAF (UniProt P15056),-0.663
7,HEXB (UniProt P07686),-0.0295
8,SNRPA (UniProt P09012),-2.09
9,UniProt P14543,-0.128
10,SNRPA1 (UniProt P09661),0.782
11,PYGB (UniProt P11216),-0.268
12,ARAF (UniProt P10398),2.01
13,BTF3 (UniProt P20290),-5.7
14,UniProt P19784,0.972
15,ATP2A2 (UniProt P16615),0.379
16,UniProt P0C1Z6,-1.58
17,ADH5 (UniProt P11766),-1.49
18,ESRRA (UniProt P11474),0.615
